# Primary screen of a compound library

Sequences of proteins named here, by UniProt entry; tags and fusion partners are left off.
UniProt E9BF75, entry or part of it: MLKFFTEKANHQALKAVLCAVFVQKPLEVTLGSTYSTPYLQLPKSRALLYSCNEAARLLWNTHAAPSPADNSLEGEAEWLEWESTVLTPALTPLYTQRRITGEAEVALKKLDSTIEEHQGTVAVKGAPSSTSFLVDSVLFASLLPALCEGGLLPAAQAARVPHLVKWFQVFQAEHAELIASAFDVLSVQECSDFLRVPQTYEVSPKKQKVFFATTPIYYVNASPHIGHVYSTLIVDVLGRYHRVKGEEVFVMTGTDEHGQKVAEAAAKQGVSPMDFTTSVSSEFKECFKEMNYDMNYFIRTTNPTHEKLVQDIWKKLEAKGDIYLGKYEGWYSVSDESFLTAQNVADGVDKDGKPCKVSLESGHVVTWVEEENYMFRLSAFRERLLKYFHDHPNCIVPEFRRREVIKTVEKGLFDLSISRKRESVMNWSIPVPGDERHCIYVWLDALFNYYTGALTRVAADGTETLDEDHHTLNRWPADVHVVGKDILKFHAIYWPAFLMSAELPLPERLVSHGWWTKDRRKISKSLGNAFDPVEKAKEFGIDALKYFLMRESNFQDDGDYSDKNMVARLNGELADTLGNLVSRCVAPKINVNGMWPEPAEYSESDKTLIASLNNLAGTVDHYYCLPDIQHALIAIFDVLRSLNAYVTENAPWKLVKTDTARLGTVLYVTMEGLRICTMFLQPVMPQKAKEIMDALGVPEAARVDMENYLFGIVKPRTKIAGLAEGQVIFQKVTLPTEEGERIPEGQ

Data taken from ChEMBL document CHEMBL3988442, “University of Dundee, Small-Polar-MMV Screening Library” (2021).

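Primary screen of methionyl-tRNA synthetase; the read-out is not stated. Target: Methionyl-tRNA synthetase (putative), Leishmania donovani (UniProt E9BF75). The test concentration is not given. Values are per cent inhibition. About 68,000 compounds were tested under these conditions; 0.035% (about 24) showed 50% or more at least once.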

All values are in %.
How 0% and 100% were set is not recorded. Most values in the screen are low, and negative values occur.
The compounds are a random part of those screened.

- COc1cccc(-c2cnc3n2CCC32CCN(S(C)(=O)=O)CC2)c1 | 18.84%
- COC(=O)c1ccc(N2CCN(CCC(=O)NC(N)=O)C(C)C2)cc1 (centres undefined) | 17.32%
- CN1CCCCC[C@@H]2[C@@H]1[C@H](c1ccccc1)CN2C(=O)c1ccccn1 | 17.19%
- COC1CCCN(C(=O)NCc2ccc(C(=O)N(C)C(C)C)cc2)C1 (centres undefined) | -0.5988%
- COc1ccc(CNC(=O)C(NC(=O)Cc2ccccc2)C(C)C)cn1 (centres undefined) | 5.706%
- Cc1cc(F)ccc1N1CCCC(NS(=O)(=O)CCCF)C1=O (centres undefined) | 12.64%
- CCc1nn(C)c(CC)c1CNC(=O)Nc1cccc([S+](C)[O-])c1 (centres undefined) | -3.591%
- Cc1ccc(CNCCN2CCOCC2)o1 | 8.228%
- Cc1nnc2n1CCN(C(=O)c1cc(C)n(-c3ccccn3)c1C)C2 | 18.9%
- O=C(N[C@@H]1CCN(C(=O)C2CCOCC2)C[C@H]1O)c1ccccn1 | 12.85%
- Cc1ccc(-c2nn3c(nc2=O)-c2ccccc2NC3C(=O)O)cc1C (centres undefined) | 6.72%
- CCCn1nc(-c2nc(C3CC3)no2)ccc1=O | 12.01%
- CCCS(=O)(=O)NC(=O)c1ccc(Br)o1 | 9.42%
- COc1ccc(OCCNCc2c(C)nn(C)c2N(C)C)cc1 | 7.368%
- Cc1cc(-c2cnc(NC3CC3)nc2-c2ccoc2C)on1 | 7.292%
- CCc1nc(C2CCCN2C(=O)c2cc(C3CC3)[nH]n2)no1 (centres undefined) | 16.78%
- CN1CCC(NC(=O)Nc2ccc(F)c(-n3cccc3)c2)C1=O (centres undefined) | 20.63%
- CNC(=O)CC1COCCN1C(=O)C1(c2ccc(Cl)cc2)CCC1 (centres undefined) | 7.453%
- Cc1nc(-n2cnnc2)ccc1-c1cccc2c1CCNC2 | 1.299%
- COc1ncc(CN2C[C@@H]3C[C@@H](O)CN3C[C@@H]2Cc2ccccc2)cn1 | 11.01%
- CCc1noc(CN2CCCC2c2noc(C3CC3)n2)n1 (centres undefined) | 9.15%
- CC(C)C(C(=O)N1CCCN(c2nccs2)CC1)n1cncn1 (centres undefined) | 14.53%
- CC1CN(C)CCN1C(=O)c1cccn1Cc1ccncc1 (centres undefined) | 9.756%
- CN(C)C(=O)Cc1ccc(NC(=O)c2cn(C)nn2)cc1 | 8.696%
- CN1CCCCC12CCN(c1nncs1)C2 (centres undefined) | 9.22%
- Cc1nc(CN2CCN(CCOc3ccc(C(C)C)c(C)c3)CC2)no1 | 10.29%
- Cc1noc(C)c1C(=O)N1CCC2(CC(N(C)c3ccncn3)C2)C1 (centres undefined) | 4.941%
- Cc1cnc(N2CCC3(CCN(Cc4csc(C)n4)C3=O)C2)nc1 (centres undefined) | 18.7%
- Cn1ccc(C(=O)N2CCCC2c2[nH]ncc2C(N)=O)n1 (centres undefined) | 11.58%
- COC(=O)Cn1c(=O)nc2n1C(=O)N(c1ccc(C)cc1)C2 | 2.752%
- COc1ccc(CN2CCN(C(=O)N(C)C)[C@@H]3CS(=O)(=O)C[C@@H]32)cc1F | 8.242%
- CC(C)CCN1C[C@H]2C[C@H](C(=O)NCC(C)C)[C@@H](C1)O2 | 7.104%
- CC(C)c1noc(CN(C)C(=O)c2ccccc2-c2nc[nH]n2)n1 | 1.804%
- COc1ccc(OC2CCN(C(=O)CCc3nc(Cl)n[nH]3)CC2)cc1 | 12.5%
- COc1cc(F)ccc1-c1nc2c([nH]1)c(C1CC1)nn2C | 12.63%

The last 4 entries again:

| structure | Inhibition |
|---|---|
| `CC(C)CCN1C[C@H]2C[C@H](C(=O)NCC(C)C)[C@@H](C1)O2` | 7.104% |
| `CC(C)c1noc(CN(C)C(=O)c2ccccc2-c2nc[nH]n2)n1` | 1.804% |
| `COc1ccc(OC2CCN(C(=O)CCc3nc(Cl)n[nH]3)CC2)cc1` | 12.5% |
| `COc1cc(F)ccc1-c1nc2c([nH]1)c(C1CC1)nn2C` | 12.63% |